Results are given in words; binding and its absence hold for the method and conditions named. In cells and extracts the contact can be indirect. A result given as binding can be weak or reduced; the word gives no strength. Sequences can lack the tags named with a protein.

Chains of the proteins cited; added tags and fusions are not shown. Lines headed by an entry give the natural chain unless they say otherwise; changes in a name come on top.
UniProt P23258: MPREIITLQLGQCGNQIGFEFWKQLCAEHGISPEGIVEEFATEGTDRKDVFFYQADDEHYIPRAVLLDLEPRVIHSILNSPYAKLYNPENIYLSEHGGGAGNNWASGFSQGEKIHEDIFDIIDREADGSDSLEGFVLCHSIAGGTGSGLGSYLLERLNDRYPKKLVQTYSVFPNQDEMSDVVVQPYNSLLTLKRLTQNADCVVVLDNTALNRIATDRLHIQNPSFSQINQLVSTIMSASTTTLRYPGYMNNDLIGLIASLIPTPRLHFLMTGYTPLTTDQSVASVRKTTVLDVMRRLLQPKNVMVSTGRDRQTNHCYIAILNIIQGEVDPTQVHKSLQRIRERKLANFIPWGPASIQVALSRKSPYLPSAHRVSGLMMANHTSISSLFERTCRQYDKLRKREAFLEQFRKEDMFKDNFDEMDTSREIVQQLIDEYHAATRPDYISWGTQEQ

These results are taken from PMC3754431.

The target in the test is T1, FLAG-18E1^E4 (human papillomavirus type 18) (UniProt P06791).
T1 sequence: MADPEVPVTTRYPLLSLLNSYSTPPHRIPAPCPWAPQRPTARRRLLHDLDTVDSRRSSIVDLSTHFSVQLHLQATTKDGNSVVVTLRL
Nature of the test: co-IP; lysates of 293T cells transfected with FLAG-18E1^E4; anti-FLAG antibody and Protein-G agarose in NET-Gel Buffer, 4°C, ≥ 4 h; immunoblot of the endogenous partner.

For γ-tubulin (from UniProt P23258), the binding result is “binds”.
